Reference: paper PMC11612967
These are yes or no findings as the source states them, for the method shown. For some of these results: Binding seen in cells or lysates may run through a third protein. Some entries that bind do so weakly or less than the wild type.

How the values were obtained:
[1] = molecular target: T1, S. pombe Nse3 (S. pombe) (UniProt Q9Y7U4); assay: pull-down; S. pombe Smc5/6 subunits co-expressed in Sf9 cells by baculovirus, one subunit tagged (N- or C-terminal); pellets processed as for the small-scale expression in E. coli; single affinity step; Coomassie-stained SDS-PAGE
T1 sequence: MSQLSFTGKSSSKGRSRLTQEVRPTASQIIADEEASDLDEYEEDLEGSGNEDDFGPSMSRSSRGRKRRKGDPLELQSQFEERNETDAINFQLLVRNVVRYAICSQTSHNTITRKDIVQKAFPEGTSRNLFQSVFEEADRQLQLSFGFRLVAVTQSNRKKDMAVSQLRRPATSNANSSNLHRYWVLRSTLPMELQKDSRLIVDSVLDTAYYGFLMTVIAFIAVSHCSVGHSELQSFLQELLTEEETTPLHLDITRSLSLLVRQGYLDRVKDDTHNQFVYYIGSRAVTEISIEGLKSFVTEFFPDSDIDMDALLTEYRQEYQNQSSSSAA

[2] = molecular target: T2, S. pombe Nse4 (S. pombe) (UniProt Q6BDR8); assay: as above
T2 sequence: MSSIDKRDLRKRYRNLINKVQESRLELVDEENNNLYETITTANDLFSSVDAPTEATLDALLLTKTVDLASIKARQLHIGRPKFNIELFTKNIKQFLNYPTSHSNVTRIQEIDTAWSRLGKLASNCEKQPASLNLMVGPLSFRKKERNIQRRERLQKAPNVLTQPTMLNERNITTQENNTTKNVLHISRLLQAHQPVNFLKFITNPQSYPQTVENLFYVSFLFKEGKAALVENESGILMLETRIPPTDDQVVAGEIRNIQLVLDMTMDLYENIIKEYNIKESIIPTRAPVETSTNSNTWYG

[3] = molecular target: T3, S. pombe Nse1 (S. pombe) (UniProt Q53EK2); assay: as above
T3 sequence: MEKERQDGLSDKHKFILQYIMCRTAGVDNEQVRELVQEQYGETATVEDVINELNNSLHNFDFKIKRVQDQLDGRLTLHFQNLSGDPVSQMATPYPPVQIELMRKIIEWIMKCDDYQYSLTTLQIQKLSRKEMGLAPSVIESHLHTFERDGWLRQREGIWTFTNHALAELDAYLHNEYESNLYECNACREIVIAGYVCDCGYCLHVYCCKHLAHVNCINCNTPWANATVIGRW

[4] = molecular target: T4, S. pombe Nse2 (S. pombe) (UniProt Q4PIR3); assay: as above
T4 sequence: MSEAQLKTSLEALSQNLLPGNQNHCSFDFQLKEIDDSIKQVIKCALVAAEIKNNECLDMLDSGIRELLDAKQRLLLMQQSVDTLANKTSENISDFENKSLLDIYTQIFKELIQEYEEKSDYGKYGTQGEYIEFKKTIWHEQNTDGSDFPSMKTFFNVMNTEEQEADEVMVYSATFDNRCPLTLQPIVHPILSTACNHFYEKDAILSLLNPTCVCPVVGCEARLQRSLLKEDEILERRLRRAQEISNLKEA

[5] = molecular target: T5, S. cerevisiae Smc6 (S. cerevisiae) (UniProt Q12749); assay: pull-down; S. cerevisiae Smc5/6 subunits co-expressed in E. coli Rosetta (DE3), one subunit with a Twin-Strep tag (N- or C-terminal); clarified lysate on Strep-Tactin Sepharose, 1 h at 4°C, 50 mM Tris-HCl pH 7.5, 300 mM NaCl, 5% glycerol; eluted with 2.5 mM desthiobiotin; Coomassie-stained SDS-PAGE
T5 sequence: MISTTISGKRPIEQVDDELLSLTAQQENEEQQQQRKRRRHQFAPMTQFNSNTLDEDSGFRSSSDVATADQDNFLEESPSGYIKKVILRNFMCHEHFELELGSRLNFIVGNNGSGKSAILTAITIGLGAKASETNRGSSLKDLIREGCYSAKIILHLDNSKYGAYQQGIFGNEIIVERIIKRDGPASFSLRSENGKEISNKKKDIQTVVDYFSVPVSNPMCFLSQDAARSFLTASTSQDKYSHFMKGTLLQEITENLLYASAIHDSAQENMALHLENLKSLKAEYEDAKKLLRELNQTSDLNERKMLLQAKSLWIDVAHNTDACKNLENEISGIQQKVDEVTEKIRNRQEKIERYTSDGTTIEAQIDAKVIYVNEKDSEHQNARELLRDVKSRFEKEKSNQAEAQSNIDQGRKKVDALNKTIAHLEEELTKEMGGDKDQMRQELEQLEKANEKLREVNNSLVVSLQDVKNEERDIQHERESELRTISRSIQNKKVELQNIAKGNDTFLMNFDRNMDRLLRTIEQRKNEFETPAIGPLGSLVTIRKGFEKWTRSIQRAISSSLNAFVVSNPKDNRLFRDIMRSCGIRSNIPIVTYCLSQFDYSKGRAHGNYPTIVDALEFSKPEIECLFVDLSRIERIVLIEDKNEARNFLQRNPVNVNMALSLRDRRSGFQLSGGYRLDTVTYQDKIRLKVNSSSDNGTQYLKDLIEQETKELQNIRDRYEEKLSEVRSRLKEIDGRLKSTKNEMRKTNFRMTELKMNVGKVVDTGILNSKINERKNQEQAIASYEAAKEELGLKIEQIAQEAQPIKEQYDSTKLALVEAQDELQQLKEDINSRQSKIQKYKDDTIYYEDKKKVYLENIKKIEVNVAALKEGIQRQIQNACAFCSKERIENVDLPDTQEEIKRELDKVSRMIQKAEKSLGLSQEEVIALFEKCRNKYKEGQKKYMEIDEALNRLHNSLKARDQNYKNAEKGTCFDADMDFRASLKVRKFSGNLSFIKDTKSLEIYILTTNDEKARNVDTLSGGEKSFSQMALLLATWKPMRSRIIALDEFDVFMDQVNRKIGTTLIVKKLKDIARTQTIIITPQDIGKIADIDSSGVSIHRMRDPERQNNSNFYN

[6] = molecular target: T6, S. cerevisiae Smc5 (S. cerevisiae) (UniProt Q08204); assay: as above
T6 sequence: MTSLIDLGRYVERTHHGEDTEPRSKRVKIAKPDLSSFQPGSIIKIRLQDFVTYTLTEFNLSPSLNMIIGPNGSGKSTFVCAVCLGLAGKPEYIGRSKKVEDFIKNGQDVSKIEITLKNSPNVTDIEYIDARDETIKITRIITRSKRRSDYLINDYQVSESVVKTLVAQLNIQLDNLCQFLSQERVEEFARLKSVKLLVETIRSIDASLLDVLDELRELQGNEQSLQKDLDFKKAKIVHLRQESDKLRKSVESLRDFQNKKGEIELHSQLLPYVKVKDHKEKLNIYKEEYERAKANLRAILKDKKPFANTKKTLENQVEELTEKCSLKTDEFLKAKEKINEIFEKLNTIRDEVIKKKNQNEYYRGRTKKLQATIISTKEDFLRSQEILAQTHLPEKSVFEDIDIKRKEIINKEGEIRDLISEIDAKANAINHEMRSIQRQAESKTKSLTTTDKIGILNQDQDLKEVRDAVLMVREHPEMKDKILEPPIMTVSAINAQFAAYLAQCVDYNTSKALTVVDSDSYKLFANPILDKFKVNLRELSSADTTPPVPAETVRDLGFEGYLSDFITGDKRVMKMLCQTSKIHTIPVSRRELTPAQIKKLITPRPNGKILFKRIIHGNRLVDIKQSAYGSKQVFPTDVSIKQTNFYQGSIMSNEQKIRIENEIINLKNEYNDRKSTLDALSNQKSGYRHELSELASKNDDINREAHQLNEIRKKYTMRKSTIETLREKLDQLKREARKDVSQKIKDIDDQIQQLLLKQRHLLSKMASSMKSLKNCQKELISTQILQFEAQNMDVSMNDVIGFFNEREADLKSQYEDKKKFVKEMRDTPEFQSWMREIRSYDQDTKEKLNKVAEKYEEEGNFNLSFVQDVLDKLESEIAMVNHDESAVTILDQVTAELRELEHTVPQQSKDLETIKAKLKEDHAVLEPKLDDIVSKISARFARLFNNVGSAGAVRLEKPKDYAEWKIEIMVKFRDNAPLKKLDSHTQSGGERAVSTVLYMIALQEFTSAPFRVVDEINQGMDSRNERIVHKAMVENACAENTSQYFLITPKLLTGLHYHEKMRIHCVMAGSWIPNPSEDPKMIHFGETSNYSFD

[7] = molecular target: T5, S. cerevisiae Smc6 (S. cerevisiae); assay: SEC; large scale, 1 liter E. coli culture; Smc6 with C-terminal Twin-Strep tag; StrepTrap, HiTrap Heparin, then Superose 6 Increase in 10 mM Tris-HCl pH 7.5, 300 mM NaCl; peak fractions by SDS-PAGE and LC-MS/MS

Measured: binding

B1: S. pombe Smc5 (protein, UniProt O13710 1-1076)
chain: MDGLRPSKRRKSNPLYSDYALGSIVRIKLVNFVTYDYCELFPGPYLNLIIGPNGTGKSTIVSAICIGLGWPPKLLGRAKEAREFIKYGKNTATIEIEMKYRDDETVTITRQISQDKSSSFSINREACATSSITSLMDTFNVQLNNLCHFLPQDRVAEFAQLDPYSRLMETERAIDHEGLLPAHEKLIDLRKREREILQNKNQGQSTLNSLKDRQQALEKEVNIFKEREKIKSYIEMLGLAKMLVIYREKTNVFNQLRADKKKLKKDLKDLVEEFQPILDKGEELRSDLKLKDDTFNDYSSASMELNTSNLRARASFSNFMENEKKLYEKVNTNRTLLRNANLTLNEAQQSVKSLTERQGPRPSDNGVQDLQEKMQEVNAEKLQHENEKLESSHELGSIRTLKAQKLIDLDNIKRELSYYNDATKRKLDFMSSAPGWEDAYQTYQLLKEYESAFEAPAYGPIYMNLKCKEKGFAALIEGFFRTDTFRTFIMSNYNDYLKLMDLITSKTKYTPTIREFSSERKKKIEDFEPPCSREKLQSFGFDGYVIDFLEGPEVVLVALCHMLKIHQIPIAKRELPPASVNALNNFRLANGDPVLKTYLAGSSIHLVFRSAYGDREITRRTDPLPSRSIYFSENVEMDLVKRKEEQLNAQLSQLENLQNEERKLQEKVNEHESLLSRTNDILSTLRKERDEKLIPIHEWQQLQERIEHQTLLLRQREKVPEQFAAEIEKNEDIRKENFEALMNSVLKVKENSIKATNNFEKMLGSRLNVIEAKYKLEKHEMDANQVNARLTEVQDRLKDITDKLASAREDAMSLYGSVVDSLQTQSSDRQTAITELNEEFATSSEVDNKISIEETKLKFMNVNSYVMEQYDARKKEIEELESKMSDFDQSVEELQDEMNSIKEDWVSKLEENVQCISDRFSKGMSGMGYAGEVRLGKSDDYDKWYIDILVQFREEEGLQKLTGQRQSGGERSVSTIMYLLSLQGLAIAPFRIVDEINQGMDPRNERVVHRHIVNSVCDNAVSQYFLVTPKLLPDLTYHRNLKVLCICNGAWLPATFRTSLSTYFEKLKKSALISSS
binds: [1] | [2] | [3] | [4]

B2: S. cerevisiae Nse2 (protein, UniProt P38632 1-267)
chain: MALNDNPIPKSVPLHPKSGKYFHNLHARDLSNIYQQCYKQIDETINQLVDSTSPSTIGIEEQVADITSTYKLLSTYESESNSFDEHIKDLKKNFKQSSDACPQIDLSTWDKYRTGELTAPKLSELYLNMPTPEPATMVNNTDTLKILKVLPYIWNDPTCVIPDLQNPADEDDLQIEGGKIELTCPITCKPYEAPLISRKCNHVFDRDGIQNYLQGYTTRDCPQAACSQVVSMRDFVRDPIMELRCKIAKMKESQEQDKRSSQAIDVL
binds: [5] | [6] | [7]
